Entries after “also recorded” stand apart in the source; their conditions may differ. At least one structure is not confirmed: it was looked up by name or label, or the drawing left a doubt.
What was measured:
PPARγ mRNA = assay: Experiment 3: gene expression analysis in adipose tissue (epididymal fat pad), PPARγ; format: in vivo, C57BL/6 mice; conditions: 30 mg/kg, end of treatment
IL-6 = assay: Experiment 1: serum IL-6 at end of treatment in DIO AKR mice; format: in vivo; conditions: 3 & 10 mg/kg, PO, BID, 4 weeks, fasting
DIO AKR mice = assay: Experiment 2: two week treatment of 24-25 weeks old male DIO AKR mice on high fat diet; format: in vivo; conditions: 10 & 30 mg/kg, PO, BID
Procedure: Compound 2 was administered for a two week treatment in 24-25 weeks old male DIO AKR mice (older). Methods: Male AKR mice, from Jackson Laboratories, group housed, 24-25 weeks old, on high fat diet (HFD, D12331 rodent diet, 58 kcal % from fat and sucrose. Research Diets, Inc., New Brunswick, N.J.) started at 4-5 weeks old. A parallel group of mice on normal diet (ND, Purina 5001) was served as diet control. During the last 2 weeks of diet period, mice on HFD were treated with vehicle (0.5% tragacanth in 0.03N HCl), Compound 2 administered at 10, and 30 mg/kg, BID, PO (10 ml/kg). Mice on ND were treated with vehicle. Mouse number in each group was 7-10. Body weight (BW), body composition, postprandial blood glucose, and fasting serum insulin were measured.

[1] = tested on: diet-induced obese (DIO) AKR mice; assay: Experiment 1: four weeks treatment of 18-19 weeks old male DIO AKR mice on high fat diet (body weight, body composition, glucose, ITT); format: in vivo
Procedure: Compound 2 was administered for four weeks treatment in 18-19 weeks old male, diet-induced obese (DIO) AKR mice. Methods: Male AKR mice, from Jackson Laboratories, group housed, 18-19 weeks old, on high fat diet (HFD, D12331 rodent diet, 58 kcal % from fat and sucrose. Research Diets, Inc., New Brunswick, N.J.) started at 4-5 weeks old. A parallel group of mice on normal diet (ND, Purina 5001) was served as diet control. During the last 4 weeks of diet period, mice on HFD were treated with vehicle (0.5% tragacanth in 0.03N HCl), Compound 2 was administered at 3 mg/kg, and 10 mg/kg, and water (control for vehicle), twice daily (BID), orally (PO) at 10 ml/kg. Mice on normal diet (ND) were treated with vehicle. Mouse number in each group was 7-10. Body weight (BW) was monitored once a week. Body composition was monitored every other week by using EchoMRI™ Whole Body Composition Analyzer (Echo Medical Systems, Houston, Tex.). Fasting blood glucose was measured at 2 weeks of treatment. Postprandial blood glucose was measured at before and end of treatment. Fasting serum insulin was measured at dosing 2 weeks via orbital bleeding. Serum IL-6 was measured at the end of treatment under fasting condition. Insulin tolerance test (ITT) was also performed at end of the diet period.

DIO C57BL/6 mice = assay: Experiment 3: four weeks treatment of male DIO C57BL/6 mice on high fat diet (body weight, body composition, glucose); format: in vivo; conditions: PO, BID
Procedure: Methods: Male C57BL/6 mice, from Jackson Laboratories, group housed, 18-19 weeks old, on high fat diet (HFD, D12331 rodent diet, 58 kcal % from fat and sucrose. Research Diets, Inc., New Brunswick, N.J.) started at 4-5 weeks old. A parallel group of mice on normal diet (ND, Purina 5001) was served as diet control. During the last 4 weeks of diet period, mice on HFD were treated with vehicle (0.5% tragacanth in 0.03N HCl), Compound 2 administered at 3, 10, and 30 mg/kg, BID, PO (10 ml/kg). Mice on ND were treated with vehicle. Mouse number in each group was 8-10. Body weight (BW), body composition, fasting blood glucose, postprandial blood glucose and insulin were measured. […] Epididymal fat pad was collected to determine PPARγ and GLUT4 gene expression.

GLUT4 mRNA = assay: Experiment 3: gene expression analysis in adipose tissue (epididymal fat pad), GLUT4; format: in vivo, C57BL/6 mice; conditions: 30 mg/kg, end of treatment
[2] = 3-30 mg/kg, final 4 weeks of 15 weeks on HFD, p<0.01 (summary)

COc1nccc(-c2c(-c3ccc(F)cc3)ncn2[C@H]2CC[C@H](O)CC2)n1 [Compound 2, trans-1-(4-hydroxycyclohexyl)-4-(4-fluorophenyl)-5-[(2-methoxy)pyrimidin-4-yl]imidazole]
PPARγ mRNA expression in adipose tissue (PPARγ mRNA): decreased
serum inflammatory cytokine IL-6 (IL-6): decreased serum IL-6; also recorded: reduced
body weight (BW), in words (DIO AKR mice; 2 weeks, 24-25 weeks old DIO AKR mice): decreased BW
fat mass (DIO AKR mice; last 2 weeks on HFD): decreased fat mass; also recorded: marked reduce; also recorded: significantly reduced
lean mass ([1]; 3 & 10 mg/kg, PO, BID, 4 weeks): did not affect lean mass
fat mass ([1]; 3 & 10 mg/kg, PO, BID, last 4 weeks of 14 weeks on HFD): tended to decrease fat mass; also recorded: trend towards reduced fat mass
body weight (BW), in words ([1]; 3 and 10 mg/kg, 18-19 weeks old DIO AKR mice (FIG. 1)): decreased BW
insulin resistance ([1]; HFD obese mice, summary statement): minimal effect
fat mass (DIO C57BL/6 mice; 30 mg/kg, last 4 weeks of 14 weeks on HFD): marked reduce
body weight (DIO C57BL/6 mice; 30 mg/kg, last 4 weeks of 14 weeks on HFD, p<0.05): decreased body weight; also recorded: significant reduction
body weight (BW) (DIO C57BL/6 mice; [2]): significant reductions
fat mass (DIO C57BL/6 mice; [2]): significant reductions
lean mass (DIO C57BL/6 mice; 4 weeks): did not affect lean mass
GLUT4 mRNA expression in adipose tissue (GLUT4 mRNA): decreased
